# Laboratory results from PubChem BioAssay AID1487 (National Center for Advancing Translational Sciences (NCATS), 2009).
# This is one part of the list. Shown are side measurements of this screen, not its main read-out; they come without a call. Compounds called inactive in the main read-out are mostly missing here. The note in brackets gives the kind of curve behind each potency; many fits are weak.
# Experiment: qHTS Assay for Modulators of Lamin A Splicing
# Conditions: HeLa LMNA splicing GFP/RFP minigene ratio, 48 h
# How it was run: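 Read-out is the ratio of GFP to DsRed2 object intensity, acquired by 488 nm laser-scanning cytometry on HeLa lamin A-EGFP minigene reporter cells. Compound incubation 48 hrs at 37 °C in Opti-MEM with 2% FBS; DMSO 0.5% final.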
# [1] = measured here: RFP viability control channel
# [2] = measured here: GFP splicing reporter channel
Compound,AC50 [1],AC50 [2]
Cc1c(C(=O)NCCCN2CCOCC2)oc2c1C1(CCC2)SCCS1,"5.01 µM [rising, partial curve]",–
C=CCn1c(SCc2csc(-c3ccc(C)cc3)n2)nnc1-c1ccccc1OC,"12.6 µM [rising, partial curve, poor fit]",–
Clc1ccc(COc2ccccc2-c2ccnc3ncnn23)cc1,"0.794 µM [rising, full curve, poor fit]","0.794 µM [rising, full curve, poor fit]"
COc1ccc(-c2nn(-c3ccccc3)cc2/C=C/C(=O)N2CCOCC2)cc1OC,"1 µM [falling, partial curve, poor fit]","1.78 µM [falling, full curve, poor fit]"
COc1ccc(CC2(CO)CCN(Cc3cnn(-c4ccc(F)cc4)c3)CC2)cc1,"1.41 µM [falling, partial curve, poor fit]","1.78 µM [falling, partial curve, poor fit]"
COc1ccc(/C=C2/CCc3ccccc3C2=O)cc1CN1CCOCC1,"12.6 µM [rising, single point]","12.6 µM [rising, single point]"
CCc1nnc(NC(=O)CSc2nccn2Cc2ccccc2)s1,–,"0.562 µM [rising, single point]"
O=C(Cn1c(-c2cccs2)cc2ccccc21)NCCCN1CCN(c2cccc(Cl)c2)CC1,"28.2 µM [falling, single point]","28.2 µM [falling, partial curve]"
CSc1nc(N)nc(SCC(=O)OC(C)C)c1C#N,"7.94 µM [rising, partial curve, poor fit]",–
CC1=CC(=NOC(=O)/C=C/c2ccccc2)C=C(C)C1=O,"0.0224 µM [falling, single point]","0.0282 µM [falling, single point]"
O=C(NC(Nc1nc2ccc([N+](=O)[O-])cc2s1)(C(F)(F)F)C(F)(F)F)c1cccnc1,"1.26 µM [falling, partial curve]","0.794 µM [falling, full curve]"
COc1ccccc1C(=O)Nc1ccc2c(c1)nc1n2CCSC1,"20 µM [rising, partial curve, poor fit]",–
Cc1ccc(S(=O)(=O)N/N=C\c2cc3c(cc2[N+](=O)[O-])OCO3)cc1,"35.5 µM [rising, single point]",–
C/C(=N\NC(=O)c1cc(C(C)C)[nH]n1)c1ccco1,–,"2.24 µM [falling, full curve, poor fit]"
COc1ccc(/C=N/NC(=O)c2ccc(COc3cccc4cccnc34)cc2)cc1OC,"0.562 µM [rising, full curve]",–
CC(C)(C)c1ccc(C(=O)N2CCN(c3nc4ccccc4o3)CC2)cc1,"5.62 µM [rising, single point]",–
CN1CCN(c2ncnc3ccc(-c4cccc(NS(C)(=O)=O)c4)cc23)CC1,"8.91 µM [falling, partial curve]","3.98 µM [falling, partial curve]"
C/C(=N\NC(=S)Nc1ccc(F)cc1)C1CC1,"3.55 µM [falling, full curve]","7.08 µM [falling, full curve]"
C=C(C)C1Cc2c(C)nn(-c3nc(C)cc(C)n3)c2C1 (configuration not stated),"11.2 µM [rising, partial curve]",–
CCc1ccc2c(c1)C1(NN=C(c3ccccc3)S1)C(=O)N2 (configuration not stated),"12.6 µM [rising, partial curve]","35.5 µM [rising, single point]"
Cc1cc(-n2c(SCc3ccccc3F)nc3[nH]ncc3c2=O)ccc1Cl,–,"35.5 µM [falling, single point]"
O=[N+]([O-])c1ccc(C(=S)N2CCN(Cc3ccccc3)CC2)cc1,"31.6 µM [rising, single point]",–
Cc1ccc(C(=O)Nc2ccccc2)cc1S(=O)(=O)Nc1ccc(Cl)cn1,"35.5 µM [falling, single point]","0.0251 µM [falling, full curve, poor fit]"
OCCN(Cc1ccccc1)C(=S)Nc1ccc(F)cc1,"6.31 µM [falling, full curve]","0.0447 µM [falling, full curve, poor fit]"
COc1ccc(Cl)cc1NC(=O)C(C)n1c(=O)cc(C(F)(F)F)c2c(C)nn(C)c21 (configuration not stated),"0.0562 µM [falling, full curve, poor fit]",–
CC(C)c1ccc(-c2nn(-c3ccccc3)cc2C2C(C#N)=C(N)OC3=C2C(=O)CC(C)(C)C3)cc1 (configuration not stated),"15.8 µM [falling, single point]","12.6 µM [falling, partial curve]"
O=C(NC(=S)N1CCN(Cc2ccc3c(c2)OCO3)CC1)c1cccc(Br)c1,"25.1 µM [rising, single point]","15.8 µM [rising, single point]"
COc1ccc(S(=O)(=O)Nc2cc(Cl)ccc2OC)cc1,"11.2 µM [rising, partial curve]","35.5 µM [rising, single point]"

# Single values from above.
# AC50 [1] with Cc1c(C(=O)NCCCN2CCOCC2)oc2c1C1(CCC2)SCCS1 reads 5.01 µM [rising, partial curve]
# AC50 [1] with Cc1ccc(S(=O)(=O)N/N=C\c2cc3c(cc2[N+](=O)[O-])OCO3)cc1 reads 35.5 µM [rising, single point]
# AC50 [2] with COc1ccc(S(=O)(=O)Nc2cc(Cl)ccc2OC)cc1 reads 35.5 µM [rising, single point]
# AC50 [2] with Cc1cc(-n2c(SCc3ccccc3F)nc3[nH]ncc3c2=O)ccc1Cl reads 35.5 µM [falling, single point]
# AC50 [2] with CCc1nnc(NC(=O)CSc2nccn2Cc2ccccc2)s1 reads 0.562 µM [rising, single point]

# Following part:

Compound,AC50 [1],AC50 [2]
COc1ccc(CNCCc2ccc(Cl)cc2)cc1OCc1ccccc1,"31.6 µM [falling, partial curve]","31.6 µM [falling, partial curve, poor fit]"
O=C(CN1CCCc2ccccc21)N/N=C/c1c(O)ccc2ccccc12,"17.8 µM [rising, single point]",–
CCOC(=O)c1c(NC(=O)CSc2nc3ccccc3o2)sc(C(C)=O)c1C,"5.62 µM [rising, partial curve, poor fit]","3.16 µM [rising, partial curve]"
COc1cccc2c(=O)cc(C)n(CC(=O)Nc3ccccc3C)c12,"22.4 µM [rising, single point]",–
CC1(N2CCOCC2)CC2(O)C(=[N+]1[O-])CCc1c2no[n+]1[O-] (configuration not stated),"20 µM [falling, single point]",–
Cc1nnc(-c2ccco2)c2cn(-c3cccc(Br)c3)nc12,"14.1 µM [rising, partial curve, poor fit]",–
Cc1[nH]nc2c1C(c1cc(Br)cs1)C(C#N)=C(N)O2 (configuration not stated),"35.5 µM [falling, single point]","35.5 µM [falling, single point]"
CC1(C)C(O)=C(c2nc3ccccc3[nH]2)C(=N)N1c1ccccc1,"17.8 µM [falling, single point]","35.5 µM [falling, single point]"
COc1ccc(NC(=O)CSc2ccccc2)cc1S(=O)(=O)N1CCCCC1,"35.5 µM [rising, single point]","12.6 µM [rising, single point]"
N#Cc1ccccc1NC(=O)c1cc(=O)c2ccccc2o1,"1.26 µM [rising, single point]",–
O=C(Nc1cc(Cl)cc(Cl)c1)c1cccc(OC(F)F)c1,"12.6 µM [rising, single point]",–
Cc1cc(NC(=O)C2CCN(S(=O)(=O)Cc3ccccc3)CC2)ccc1-n1cnnn1,"35.5 µM [rising, single point]",–
COc1ccc(N2CCN(c3nc(-c4ccccc4F)nc4ccccc34)CC2)cc1,"0.178 µM [falling, full curve, poor fit]",–
O=[N+]([O-])c1ccc(-n2nnnc2CN2CCOCC2)cc1,"0.2 µM [falling, full curve, poor fit]",–
Nc1nc(SCc2ccc([N+](=O)[O-])cc2)c2ncn(C3OC(CO)C(O)C3O)c2n1 (configuration not stated),"0.02 µM [falling, full curve, poor fit]","0.0562 µM [falling, full curve]"
CC(=O)c1cccc(NS(=O)(=O)c2cc(OCC(N)=O)c(C)cc2Cl)c1,"20 µM [rising, single point]",–
CC(=O)Oc1ccc(Oc2ccc(-c3noc(C)n3)cc2)cc1,"14.1 µM [rising, partial curve]",–
O=C(c1cccc2c1-c1ccccc1/C2=N/O)N1CCCCC1,"15.8 µM [rising, single point]","14.1 µM [rising, partial curve]"
Cc1cccc(C(=O)NC(=S)Nc2ccc3[nH]c(=O)[nH]c3c2)c1,"5.62 µM [falling, single point]",–
COc1cccc(N2CC(C(=O)Nc3nnc(SCC(=O)c4ccccc4)s3)CC2=O)c1 (configuration not stated),"2.82 µM [rising, partial curve]",–
Cc1ccccc1CSc1nc2nc(C)c(Cc3ccccc3)c(C)n2n1,–,"2 µM [falling, partial curve, poor fit]"
CCN1CCS/C1=C\C=C\C1=[N+](CC)CCS1,–,"0.316 µM [falling, partial curve, poor fit]"
COc1ccccc1CNc1ncncc1-c1ccccc1Cl,–,"11.2 µM [falling, partial curve]"
Cc1cc(C)nc(NC(N)=NC(C)c2ccccc2)n1 (configuration not stated),–,"1.12 µM [falling, partial curve, poor fit]"
Cc1cc(C(=O)NCCc2ccc(Cl)cc2)no1,"0.0562 µM [falling, full curve, poor fit]",–
O=C(c1ccco1)c1cn(CC(=O)N2CCCc3ccccc32)c2ccccc12,"14.1 µM [rising, single point]",–
Cc1ccccc1C(=O)N/N=C/c1ccc([N+](=O)[O-])s1,"8.91 µM [falling, partial curve]",–
